Data reported in patent US6071946A, “Tricyclic urea compounds” (Adir et Compagnie, priority 1994, dated 2000).
Some results were stated once for a whole list of compounds, not compound by compound.

Test: Foregoing pharmacological Examples (A to I), carbamides or ureas substituted for the compounds of Examples 119 and 131
Settings: in place of the compounds of Examples 119 and 131

Row | Compound | results in the foregoing pharmacological Examples, compared with the compounds of Examples 119 and 131
1 | CCCNC(=O)NCCc1coc2ccc3c(c12)CCCO3 [Example 159, N-[2-(8,9-Dihydro-7H-furo[3,2-f]chromen-1-yl)ethyl]-N'-propylurea] | approximately equally statistically-significant results
2 | CCCCNC(=O)NCCc1coc2ccc3c(c12)CCCO3 [Example 160, N-Butyl-N'-[2-(8,9-dihydro-7H-furo[3,2-f]chromen-1-yl)ethyl)urea] | approximately equally statistically-significant results
3 | S=C(NCCc1coc2ccc3c(c12)CCCO3)NC1CC1 [Example 161, N-Cyclopropyl-N'-[2-(8,9-dihydro-7H-furo[3,2-f]chromen-1-yl)ethyl]thiourea] | approximately equally statistically-significant results
4 | CCCNC(=S)NCCc1coc2ccc3c(c12)CCCO3 [Example 162, N-[2-(8,9-Dihydro-7H-furo[3,2-f]chromen-1-yl)ethyl]-N'-propylthiourea] | approximately equally statistically-significant results
5 | CCCCNC(=S)NCCc1coc2ccc3c(c12)CCCO3 [Example 163, N-Butyl-N'-[2-(8,9-dihydro-7H-furo[3,2-f]chromen-1-yl)ethyl]thiourea] | approximately equally statistically-significant results
